PubChem BioAssay AID248 (DTP/NCI, 2004)
The list does not hold the whole screen: it gathers tests that were run many times, whatever their T/C, doses with no T/C, and many T/C values between a quarter and a half above the control. Further doses and runs are listed elsewhere. T/C is the treated group as % of the vehicle group. Some entries give survivors of the animals treated and no T/C: the source holds a T/C of zero for them, seemingly a mark for toxic or unscored doses. Some doses without a T/C left all or most animals alive at the check, yet need not have been tolerated: the source hardly ever lists a survival T/C far under the control, and the zero likely stands for such cases as well. Survivors were counted at the toxicity check, usually on the fifth day, unless a day is given; later deaths do not show. Schedules are NCI's codes, read here as Q, the interval in days (D) or hours (H), X, the number of doses. Some entries were tested several times; their values stand side by side, smallest first. Some schedule codes hold Z or #, which are not explained here. Where survival is the endpoint, this PubChem deposit counts one and a half times the control or more as active, and values a quarter to a half above the control carry no call in these data; other NCI protocols may use other cut-offs.

Tested on: L1210 leukemia ip in BDF1 mice, survival T/C
Assay: NCI In Vivo Anticancer Drug Screen. Data for tumor model L1210 Leukemia (intraperitoneal) in B6D2F1 (BDF1) mice
Conditions: T/C endpoint: mean survival time, higher T/C = longer survival
[1] = dose: 50.0 mg/kg/injection, schedule: Q04DX003 (ip), vehicle: saline with Tween-80
[2] = dose: 100.0 mg/kg/injection, schedule: Q04DX003 (ip), vehicle: Klucel (hydroxypropylcellulose) (HPC)
[3] = dose: 200.0 mg/kg/injection, schedule: Q04DX003 (ip), vehicle: Klucel (hydroxypropylcellulose) (HPC)
[4] = dose: 400.0 mg/kg/injection, schedule: Q04DX003 (ip), vehicle: Klucel (hydroxypropylcellulose) (HPC)
[5] = dose: 100.0 mg/kg/injection, schedule: Q04DX002 (ip), vehicle: Klucel (hydroxypropylcellulose) (HPC)
[6] = dose: 200.0 mg/kg/injection, schedule: Q01DX009 (ip), vehicle: saline
[7] = dose: 400.0 mg/kg/injection, schedule: Q01DX009 (ip), vehicle: saline
[8] = dose: 200.0 mg/kg/injection, schedule: Q04DX003 (ip), vehicle: saline
[9] = dose: 400.0 mg/kg/injection, schedule: Q04DX003 (ip), vehicle: saline
[10] = dose: 200.0 mg/kg/injection, schedule: Q04DX002 (ip), vehicle: saline with Tween-80
[11] = dose: 400.0 mg/kg/injection, schedule: Q04DX003 (ip), vehicle: saline with Tween-80
[12] = dose: 400.0 mg/kg/injection, schedule: Q01DX009 (ip), vehicle: Klucel (hydroxypropylcellulose) (HPC)
[13] = dose: 200.0 mg/kg/injection, schedule: Q04DX003 (ip), vehicle: saline with Tween-80
[14] = dose: 300.0 mg/kg/injection, schedule: Q01DX001 (ip), vehicle: carboxymethylcellulose (CMC)
[15] = dose: 200.0 mg/kg/injection, schedule: Q01DX009 (ip), vehicle: saline with Tween-80
[16] = dose: 400.0 mg/kg/injection, schedule: Q01DX001 (ip), vehicle: saline

O=C(NCCCl)Nc1cccnc1
survivor count (dose: 6.25 mg/kg/injection, schedule: Q01DX009 (ip), vehicle: saline): 6 of 6
survivor count (dose: 12.5 mg/kg/injection, schedule: Q01DX009 (ip), vehicle: saline): 6 of 6
survivor count (dose: 25.0 mg/kg/injection, schedule: Q01DX009 (ip), vehicle: saline): 6 of 6
survivor count [1]: 4 of 6
survivor count [2]: 1 of 6
survivor count [3]: 1 of 6
survivor count [4]: 1 of 6

CC(C)CC(N)C(=O)CCl (stereo not given)
survivor count [5]: 2 of 3

[CH3][Pb]([CH3])([CH3])[Cl]
survivor count (dose: 100.0 mg/kg/injection, schedule: Q01DX009 (ip), vehicle: saline): 0 of 6
survivor count [6]: 0 of 6
survivor count [7]: 0 of 6

Oc1ccccc1C=NCCN1CC1.Oc1ccccc1C=NCCN1CC1.[Ni+2]
survivor count (dose: 50.0 mg/kg/injection, schedule: Q01DX009 (ip), vehicle: saline with Tween-80): 0 of 6
survivor count (dose: 100.0 mg/kg/injection, schedule: Q01DX009 (ip), vehicle: saline with Tween-80): 0 of 6
survivor count [8]: 1 of 6
survivor count [9]: 0 of 6

CC1=CC(=C2C=C(C)C(=O)C(C)=C2)C=C(C)C1=O
survivor count (dose: 200.0 mg/kg/injection, schedule: Q01DX001 (ip), vehicle: saline with Tween-80): 3 of 3

NC(=O)N/N=C/c1ccc[n+]([O-])c1
survivor count [10]: 3 of 3

C=CCNc1ccc(C)cc1
survivor count (dose: 200.0 mg/kg/injection, schedule: Q01DX009 (ip), vehicle: other): 1 of 6
survivor count (dose: 400.0 mg/kg/injection, schedule: Q04DX003 (ip), vehicle: other): 3 of 6

O=C(/C=C/c1ccccc1)NC(=S)Nc1cc(C(F)(F)F)ccc1Cl
survivor count [11]: 6 of 6

O=[N+]([O-])/C=C/c1cccc([N+](=O)[O-])c1
survivor count [2]: 4 of 6 and 5 of 6
survivor count [3]: 5 of 6
survivor count [4]: 3 of 6

O=C1CNC(c2ccccc2)c2cc(Cl)ccc2N1 (stereo not given)
survivor count (dose: 50.0 mg/kg/injection, schedule: Q01DX009 (ip), vehicle: Klucel (hydroxypropylcellulose) (HPC)): 6 of 6
survivor count [12]: 6 of 6

CC(=O)NC/C(C)=N/Nc1ccc([N+](=O)[O-])cc1[N+](=O)[O-]
survivor count [13]: 2 of 6
survivor count [11]: 0 of 6

COc1ccc(Cc2c3cc(OC)c(OC)cc3cc[n+]2Cc2ccc(N(CCCl)CCCl)cc2)cc1OC
survivor count [14]: 0 of 6

C/C=C(\CC)C(=O)O.[Pb]
survivor count [10]: 0 of 3

OC(c1ccccc1)(c1ccccc1)c1ccsc1
survivor count [15]: 3 of 3

S=c1ssc2ccccc12
survivor count [16]: 6 of 6

Cc1ccc(C(=O)NS(=O)(=O)c2ccc(C)cc2)cc1
survivor count [12]: 0 of 6

N#CC1(O)CN2CCC1CC2 (stereo not given)
survivor count (dose: 25.0 mg/kg/injection, schedule: Q04DX003 (ip), vehicle: Klucel (hydroxypropylcellulose) (HPC)): 0 of 6
survivor count (dose: 50.0 mg/kg/injection, schedule: Q04DX003 (ip), vehicle: Klucel (hydroxypropylcellulose) (HPC)): 0 of 6
survivor count (dose: 75.0 mg/kg/injection, schedule: Q04DX003 (ip), vehicle: Klucel (hydroxypropylcellulose) (HPC)): 0 of 6
survivor count (dose: 150.0 mg/kg/injection, schedule: Q04DX003 (ip), vehicle: Klucel (hydroxypropylcellulose) (HPC)): 0 of 6
survivor count (dose: 300.0 mg/kg/injection, schedule: Q04DX003 (ip), vehicle: Klucel (hydroxypropylcellulose) (HPC)): 0 of 6

CC1(C)CC(=O)C2=C(C1)Nc1ccc(Cl)cc1NC2c1ccccc1 (stereo not given)
T/C [5]: 127 % of control

CCOCCN=Cc1ccccc1O.CCOCCN=Cc1ccccc1O.[Co]
survivor count [16]: 0 of 6

Cc1c[n+](CC(=O)c2ccccc2)cn1CC(=O)c1ccccc1
T/C [5]: 88, 100, 108 % of control
survivor count [5]: 1 of 3
survivor count (dose: 200.0 mg/kg/injection, schedule: Q04DX002 (ip), vehicle: Klucel (hydroxypropylcellulose) (HPC)): 0 of 6 and 2 of 3
survivor count (dose: 400.0 mg/kg/injection, schedule: Q04DX002 (ip), vehicle: Klucel (hydroxypropylcellulose) (HPC)): 0 of 3 and 1 of 6

Cc1[nH]nc(C(F)(F)F)c1N=NN(C)C
survivor count (dose: 265.0 mg/kg/injection, schedule: Q01DX009 (ip), vehicle: saline): 4 of 6
survivor count [7]: 5 of 6
survivor count (dose: 600.0 mg/kg/injection, schedule: Q01DX009 (ip), vehicle: saline): 5 of 6

COC(=O)c1nc(-c2ccc3c(n2)C(=O)C(N)=C(OC)C3=O)c(N)c(-c2ccc(OC)c(OC)c2O)c1C
survivor count (dose: 4.0 mg/kg/injection, schedule: Q01DX001 (ip), vehicle: water): 3 of 6
survivor count (dose: 4.0 mg/kg/injection, schedule: Q01DX015 (ip), vehicle: water): 4 of 6
survivor count (dose: 8.0 mg/kg/injection, schedule: Q01DX001 (ip), vehicle: water): 0 of 6

C=CCN(C=O)CC=C
survivor count [6]: 4 of 6
survivor count [7]: 0 of 6

O=C(Cn1cc(F)c(=O)[nH]c1=O)N1CCC2(CC1)SSC1(CCN(C(=O)Cn3cc(F)c(=O)[nH]c3=O)CC1)S2
survivor count [7]: 1 of 6

Cn1c(CCl)nc2c1c(=O)[nH]c(=O)n2C
survivor count (dose: 200.0 mg/kg/injection, schedule: Q01DX001 (ip), vehicle: other): 0 of 4
survivor count (dose: 400.0 mg/kg/injection, schedule: Q01DX001 (ip), vehicle: other): 0 of 4

COc1nc(N)c([N+](=O)[O-])c(OC)n1
survivor count (dose: 125.0 mg/kg/injection, schedule: Q01DX Z (ip), vehicle: methylcellulose (MC)): 3 of 6

COc1ccc(C[n+]2cc([O-])on2)cc1
survivor count (dose: 170.0 mg/kg/injection, schedule: Q01DX009 (ip), vehicle: Klucel (hydroxypropylcellulose) (HPC)): 6 of 6
survivor count (dose: 170.0 mg/kg/injection, schedule: Q04DX003 (ip), vehicle: other): 0 of 6
survivor count (dose: 200.0 mg/kg/injection, schedule: Q01DX001 (ip), vehicle: Klucel (hydroxypropylcellulose) (HPC)): 2 of 6
survivor count (dose: 260.0 mg/kg/injection, schedule: Q01DX009 (ip), vehicle: Klucel (hydroxypropylcellulose) (HPC)): 0 of 6

C[P+](C)(c1ccccc1)c1ccccc1
survivor count (dose: 25.0 mg/kg/injection, schedule: Q04DX003 (ip), vehicle: saline with Tween-80): 0 of 6
survivor count [1]: 0 of 6
survivor count (dose: 100.0 mg/kg/injection, schedule: Q04DX003 (ip), vehicle: saline with Tween-80): 0 of 6
survivor count [13]: 0 of 6
survivor count [11]: 0 of 6

CCC(C)Nc1ccc(N)cc1 (stereo not given)
survivor count (dose: 100.0 mg/kg/injection, schedule: Q01DX009 (ip), vehicle: carboxymethylcellulose (CMC)): 0 of 6
survivor count (dose: 200.0 mg/kg/injection, schedule: Q01DX009 (ip), vehicle: carboxymethylcellulose (CMC)): 0 of 6
survivor count (dose: 400.0 mg/kg/injection, schedule: Q01DX009 (ip), vehicle: carboxymethylcellulose (CMC)): 0 of 6

C1CCC2C(C1)NC1CCCCC12 (stereo not given)
survivor count [8]: 0 of 6
survivor count [9]: 0 of 6

CCN(CC)CCCC(C)Nc1ccccn1 (stereo not given)
survivor count [14]: 0 of 6

COc1cc2ccc(CCN)cc2cc1OC
survivor count (dose: 100.0 mg/kg/injection, schedule: Q04DX003 (ip), vehicle: saline): 5 of 6
survivor count [8]: 0 of 6
survivor count [9]: 0 of 6

Cc1cc(C(=O)O)ccc1S(=O)(=O)F
survivor count [15]: 3 of 6
survivor count (dose: 400.0 mg/kg/injection, schedule: Q01DX009 (ip), vehicle: saline with Tween-80): 3 of 6
